Patent publication EP4480961A1
No constants are given. Whether binding was seen depends on the method and setting.

Key:
transferrin = test: cross-reactivity test, yeast display flow cytometry
lysozyme = test: as above

B1: P7 engineered rcSso7d binder (designed binder)
chain: ATVKFTYQGEEKQVDISKIKFVFRMGQAIEFAYDEGGGALGVGVVSEKDAPKELLQMLEKQ
- binding (transferrin): no binding (tested: 1 µM)
- binding (lysozyme): no binding (tested: 1 µM)

B2: P9 engineered rcSso7d binder (designed binder)
chain: ATVKFTYQGEEKQVDISKIKNVHRHGQYISFWYDEGGGAYGHGKVSEKDAPKELLQMLEKQ
- binding (transferrin): no binding (tested: 1 µM)
- binding (lysozyme): no binding (tested: 1 µM)
